{"sequences": {"note": "By UniProt entry, the sequences of proteins in these tests, tags left out. Where a name states a change or a piece, a line headed by the entry shows the natural chain unless it says otherwise.", "UniProt O00534": "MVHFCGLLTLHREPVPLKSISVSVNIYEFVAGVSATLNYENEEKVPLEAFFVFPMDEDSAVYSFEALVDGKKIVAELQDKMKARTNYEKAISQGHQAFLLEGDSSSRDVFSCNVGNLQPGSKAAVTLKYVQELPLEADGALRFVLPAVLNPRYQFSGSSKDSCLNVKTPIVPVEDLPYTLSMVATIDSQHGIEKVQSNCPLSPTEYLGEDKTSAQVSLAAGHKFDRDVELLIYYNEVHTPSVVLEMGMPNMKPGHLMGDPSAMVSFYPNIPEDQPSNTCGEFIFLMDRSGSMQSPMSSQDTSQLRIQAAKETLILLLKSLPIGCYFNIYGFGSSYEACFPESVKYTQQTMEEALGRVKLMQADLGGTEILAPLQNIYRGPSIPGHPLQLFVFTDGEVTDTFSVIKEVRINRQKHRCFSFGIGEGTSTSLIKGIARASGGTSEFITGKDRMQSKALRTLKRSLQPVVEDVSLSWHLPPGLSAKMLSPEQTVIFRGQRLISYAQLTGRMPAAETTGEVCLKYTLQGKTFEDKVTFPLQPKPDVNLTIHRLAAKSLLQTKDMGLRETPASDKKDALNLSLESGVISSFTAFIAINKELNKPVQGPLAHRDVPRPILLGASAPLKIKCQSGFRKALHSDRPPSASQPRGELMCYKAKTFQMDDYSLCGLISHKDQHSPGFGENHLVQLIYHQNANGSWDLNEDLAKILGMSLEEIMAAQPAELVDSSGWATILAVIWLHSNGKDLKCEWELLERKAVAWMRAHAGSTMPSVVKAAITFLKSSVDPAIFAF", "UniProt O00488": "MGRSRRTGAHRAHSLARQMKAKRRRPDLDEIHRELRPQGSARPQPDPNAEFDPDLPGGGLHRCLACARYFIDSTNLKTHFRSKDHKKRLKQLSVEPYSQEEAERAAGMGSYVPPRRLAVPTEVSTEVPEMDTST", "UniProt O00625": "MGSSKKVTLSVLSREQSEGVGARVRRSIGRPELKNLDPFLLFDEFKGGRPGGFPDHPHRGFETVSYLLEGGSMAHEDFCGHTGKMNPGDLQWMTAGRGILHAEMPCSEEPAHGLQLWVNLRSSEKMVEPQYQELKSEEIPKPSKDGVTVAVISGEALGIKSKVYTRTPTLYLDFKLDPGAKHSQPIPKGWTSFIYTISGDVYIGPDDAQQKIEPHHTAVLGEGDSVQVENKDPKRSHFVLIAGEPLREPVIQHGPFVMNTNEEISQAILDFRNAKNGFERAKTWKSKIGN", "UniProt O14782": "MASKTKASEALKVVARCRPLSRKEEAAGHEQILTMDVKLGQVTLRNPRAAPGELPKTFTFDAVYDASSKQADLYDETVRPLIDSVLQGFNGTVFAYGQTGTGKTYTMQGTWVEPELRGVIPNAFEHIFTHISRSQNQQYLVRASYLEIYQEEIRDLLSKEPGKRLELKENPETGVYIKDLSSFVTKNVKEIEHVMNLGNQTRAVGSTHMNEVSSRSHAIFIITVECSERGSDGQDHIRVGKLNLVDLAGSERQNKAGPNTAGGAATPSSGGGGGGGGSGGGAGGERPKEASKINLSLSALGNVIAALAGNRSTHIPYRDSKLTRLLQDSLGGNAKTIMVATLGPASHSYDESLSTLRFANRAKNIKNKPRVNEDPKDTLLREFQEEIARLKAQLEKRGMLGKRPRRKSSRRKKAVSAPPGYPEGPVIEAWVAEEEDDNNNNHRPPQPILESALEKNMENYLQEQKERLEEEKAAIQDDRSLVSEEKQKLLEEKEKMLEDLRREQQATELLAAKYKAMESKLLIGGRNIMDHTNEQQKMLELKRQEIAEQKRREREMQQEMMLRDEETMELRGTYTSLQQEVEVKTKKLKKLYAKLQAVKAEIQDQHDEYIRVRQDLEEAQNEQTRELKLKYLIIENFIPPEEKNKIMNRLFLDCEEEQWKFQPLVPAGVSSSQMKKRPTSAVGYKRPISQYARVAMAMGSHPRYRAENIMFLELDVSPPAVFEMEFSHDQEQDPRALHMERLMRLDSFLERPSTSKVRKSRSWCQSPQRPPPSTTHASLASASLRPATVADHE", "UniProt O00764": "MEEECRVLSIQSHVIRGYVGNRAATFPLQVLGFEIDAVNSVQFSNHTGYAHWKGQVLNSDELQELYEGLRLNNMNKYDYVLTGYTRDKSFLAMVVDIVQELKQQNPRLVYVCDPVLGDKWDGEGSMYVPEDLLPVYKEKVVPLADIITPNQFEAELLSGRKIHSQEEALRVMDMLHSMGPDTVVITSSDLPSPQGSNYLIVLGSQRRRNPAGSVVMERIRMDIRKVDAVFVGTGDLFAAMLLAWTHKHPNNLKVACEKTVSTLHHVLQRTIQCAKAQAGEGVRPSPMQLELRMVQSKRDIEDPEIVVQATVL", "UniProt O15371, whole entry": "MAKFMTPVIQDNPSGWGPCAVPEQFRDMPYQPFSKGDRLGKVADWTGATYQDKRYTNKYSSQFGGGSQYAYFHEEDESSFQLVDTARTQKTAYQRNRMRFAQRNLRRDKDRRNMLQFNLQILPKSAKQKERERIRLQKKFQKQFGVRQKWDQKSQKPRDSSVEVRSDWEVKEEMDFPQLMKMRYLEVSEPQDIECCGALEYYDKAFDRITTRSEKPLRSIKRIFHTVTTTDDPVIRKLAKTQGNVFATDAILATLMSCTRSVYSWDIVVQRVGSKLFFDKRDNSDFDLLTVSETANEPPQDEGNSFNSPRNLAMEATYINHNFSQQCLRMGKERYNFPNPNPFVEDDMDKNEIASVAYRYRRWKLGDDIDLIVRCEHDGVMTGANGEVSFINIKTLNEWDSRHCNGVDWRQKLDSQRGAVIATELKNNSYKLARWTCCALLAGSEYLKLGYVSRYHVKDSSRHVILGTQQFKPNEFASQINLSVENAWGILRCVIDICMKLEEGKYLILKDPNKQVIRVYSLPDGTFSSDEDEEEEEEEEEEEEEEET", "UniProt B7Z6K7": "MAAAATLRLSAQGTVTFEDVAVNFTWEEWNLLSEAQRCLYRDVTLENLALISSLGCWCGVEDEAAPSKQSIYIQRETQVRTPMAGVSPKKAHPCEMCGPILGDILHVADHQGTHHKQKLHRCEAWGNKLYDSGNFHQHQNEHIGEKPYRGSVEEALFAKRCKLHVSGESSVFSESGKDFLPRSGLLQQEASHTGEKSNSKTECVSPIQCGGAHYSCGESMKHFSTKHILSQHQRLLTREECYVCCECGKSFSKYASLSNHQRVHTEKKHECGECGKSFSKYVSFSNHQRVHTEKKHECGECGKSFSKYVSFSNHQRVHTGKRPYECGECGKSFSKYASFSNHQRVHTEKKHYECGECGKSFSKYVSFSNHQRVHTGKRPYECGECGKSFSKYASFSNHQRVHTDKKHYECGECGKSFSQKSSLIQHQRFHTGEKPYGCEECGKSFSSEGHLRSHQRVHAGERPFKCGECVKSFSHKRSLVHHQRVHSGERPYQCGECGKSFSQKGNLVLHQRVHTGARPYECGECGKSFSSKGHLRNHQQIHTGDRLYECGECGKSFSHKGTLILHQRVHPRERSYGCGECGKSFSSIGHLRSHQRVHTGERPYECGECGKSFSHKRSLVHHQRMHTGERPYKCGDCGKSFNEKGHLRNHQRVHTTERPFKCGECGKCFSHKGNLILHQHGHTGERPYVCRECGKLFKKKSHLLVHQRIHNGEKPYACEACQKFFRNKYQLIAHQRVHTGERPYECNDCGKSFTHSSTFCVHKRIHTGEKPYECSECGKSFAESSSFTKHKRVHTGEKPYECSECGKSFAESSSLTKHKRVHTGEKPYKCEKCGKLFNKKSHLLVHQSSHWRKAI", "UniProt O00522": "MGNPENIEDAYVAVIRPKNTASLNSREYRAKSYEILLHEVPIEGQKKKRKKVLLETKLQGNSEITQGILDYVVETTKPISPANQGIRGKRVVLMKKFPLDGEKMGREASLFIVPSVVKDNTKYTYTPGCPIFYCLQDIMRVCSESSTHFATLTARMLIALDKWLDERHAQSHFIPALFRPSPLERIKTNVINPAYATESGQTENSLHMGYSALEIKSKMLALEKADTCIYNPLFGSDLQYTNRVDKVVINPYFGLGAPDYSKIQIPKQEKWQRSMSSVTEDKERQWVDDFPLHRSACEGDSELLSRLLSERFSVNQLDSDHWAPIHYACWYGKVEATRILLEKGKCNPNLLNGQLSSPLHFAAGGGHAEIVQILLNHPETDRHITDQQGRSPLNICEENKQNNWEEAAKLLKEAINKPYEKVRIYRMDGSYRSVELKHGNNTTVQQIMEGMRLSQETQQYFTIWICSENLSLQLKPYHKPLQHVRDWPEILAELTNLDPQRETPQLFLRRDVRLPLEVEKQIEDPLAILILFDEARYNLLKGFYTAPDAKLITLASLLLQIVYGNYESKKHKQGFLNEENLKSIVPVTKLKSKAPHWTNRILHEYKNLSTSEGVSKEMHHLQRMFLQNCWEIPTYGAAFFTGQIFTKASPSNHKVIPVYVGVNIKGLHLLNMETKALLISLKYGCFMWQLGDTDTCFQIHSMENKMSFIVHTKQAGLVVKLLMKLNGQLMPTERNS", "UniProt A8K8V0": "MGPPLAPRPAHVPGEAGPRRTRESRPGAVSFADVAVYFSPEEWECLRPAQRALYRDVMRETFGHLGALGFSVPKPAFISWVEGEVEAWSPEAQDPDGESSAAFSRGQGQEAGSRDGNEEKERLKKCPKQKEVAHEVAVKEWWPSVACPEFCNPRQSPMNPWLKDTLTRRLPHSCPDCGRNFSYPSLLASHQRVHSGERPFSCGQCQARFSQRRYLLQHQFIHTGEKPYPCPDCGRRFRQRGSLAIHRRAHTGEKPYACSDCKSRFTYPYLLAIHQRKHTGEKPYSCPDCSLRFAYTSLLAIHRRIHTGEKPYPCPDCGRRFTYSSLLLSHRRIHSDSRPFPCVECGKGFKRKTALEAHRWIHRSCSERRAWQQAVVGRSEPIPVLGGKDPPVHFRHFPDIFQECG", "UniProt C9JTQ0": "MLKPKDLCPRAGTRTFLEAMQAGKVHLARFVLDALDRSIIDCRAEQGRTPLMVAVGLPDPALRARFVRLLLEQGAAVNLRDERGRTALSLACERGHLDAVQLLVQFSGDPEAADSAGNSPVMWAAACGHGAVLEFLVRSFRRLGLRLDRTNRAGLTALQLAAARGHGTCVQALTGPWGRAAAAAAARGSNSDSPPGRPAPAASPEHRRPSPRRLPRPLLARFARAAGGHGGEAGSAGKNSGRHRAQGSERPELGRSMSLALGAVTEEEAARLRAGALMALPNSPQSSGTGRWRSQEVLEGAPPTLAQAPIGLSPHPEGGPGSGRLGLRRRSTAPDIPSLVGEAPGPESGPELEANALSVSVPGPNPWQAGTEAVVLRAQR", "UniProt O14656": "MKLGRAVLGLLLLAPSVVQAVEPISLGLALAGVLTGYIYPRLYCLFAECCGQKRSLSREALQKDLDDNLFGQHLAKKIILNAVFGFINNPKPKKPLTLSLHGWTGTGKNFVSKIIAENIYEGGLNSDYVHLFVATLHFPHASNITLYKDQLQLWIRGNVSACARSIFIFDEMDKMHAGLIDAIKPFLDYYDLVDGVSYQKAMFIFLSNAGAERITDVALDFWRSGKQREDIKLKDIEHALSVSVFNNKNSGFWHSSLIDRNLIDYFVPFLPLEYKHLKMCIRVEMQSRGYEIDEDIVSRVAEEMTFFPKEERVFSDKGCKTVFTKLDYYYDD", "UniProt O14979": "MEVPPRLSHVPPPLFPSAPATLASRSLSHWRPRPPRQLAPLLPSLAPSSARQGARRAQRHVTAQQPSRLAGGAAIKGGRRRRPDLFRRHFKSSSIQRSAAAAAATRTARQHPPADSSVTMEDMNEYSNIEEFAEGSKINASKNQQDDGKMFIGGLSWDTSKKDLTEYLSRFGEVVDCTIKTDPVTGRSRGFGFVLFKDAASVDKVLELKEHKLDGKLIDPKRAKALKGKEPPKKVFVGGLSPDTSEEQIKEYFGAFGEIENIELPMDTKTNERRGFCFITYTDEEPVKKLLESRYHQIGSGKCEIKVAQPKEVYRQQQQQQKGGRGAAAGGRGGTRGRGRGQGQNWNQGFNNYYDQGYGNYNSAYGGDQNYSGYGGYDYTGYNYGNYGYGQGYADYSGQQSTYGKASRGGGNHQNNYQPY", "UniProt O14910": "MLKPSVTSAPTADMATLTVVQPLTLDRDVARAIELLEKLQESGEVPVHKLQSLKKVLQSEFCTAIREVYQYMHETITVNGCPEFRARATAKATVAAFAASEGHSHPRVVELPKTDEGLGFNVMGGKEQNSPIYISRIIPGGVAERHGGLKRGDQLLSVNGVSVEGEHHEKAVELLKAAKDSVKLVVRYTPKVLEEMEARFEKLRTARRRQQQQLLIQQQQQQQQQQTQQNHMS", "UniProt O14579": "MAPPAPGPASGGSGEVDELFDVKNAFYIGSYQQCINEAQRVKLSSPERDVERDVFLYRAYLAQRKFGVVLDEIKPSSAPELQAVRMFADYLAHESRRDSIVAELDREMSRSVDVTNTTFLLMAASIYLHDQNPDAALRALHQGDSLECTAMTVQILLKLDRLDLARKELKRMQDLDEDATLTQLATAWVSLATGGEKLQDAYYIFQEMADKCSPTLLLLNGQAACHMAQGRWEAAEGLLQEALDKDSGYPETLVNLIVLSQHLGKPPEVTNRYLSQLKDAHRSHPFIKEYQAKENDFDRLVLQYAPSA"}, "source": "the supplement of paper PMC12819154", "about": "“High-throughput peptide-centric local stability assay extends protein–ligand identification to membrane proteins, tissues and bacteria” (Nature Structural & Molecular Biology, 2025)", "note": "Some of the results follow. Most entries show no effect beyond the scatter of the controls."}
{"compound": "CN[C@@H]1C[C@H]2O[C@@](C)([C@@H]1OC)n1c3ccccc3c3c4c(c5c6ccccc6n2c5c31)C(=O)NC4 [staurosporine]", "test": "log2 fold change of tryptic peptide abundance, ligand vs vehicle (limited proteolysis) (log2 ratio); higher = more trypsin-susceptible (destabilized)", "conditions": "ligand concentration: 20 uM; sample: K562 cleared lysate; digestion: 4 min, 22 C (HT-PELSA RT4min, Orbitrap Astral)"}
{"target": "VWA5A (peptide sequence: TFQMDDYSLCGLISHK, peptide start residue: 654) (UniProt O00534)", "log2 fold change": -0.131}
{"target": "ZNF593 (peptide sequence: AAGMGSYVPPR, peptide start residue: 105) (UniProt O00488)", "log2 fold change": 0.244}
{"target": "FPGT (peptide sequence: FLHKPSIEK, peptide start residue: 240) (UniProt O14772)", "log2 fold change": 0.143}
{"target": "PIR (peptide sequence: GGRPGGFPDHPHR, peptide start residue: 47) (UniProt O00625)", "log2 fold change": 0.651}
{"target": "KIF3C (peptide sequence: NMENYLQEQK, peptide start residue: 456) (UniProt O14782)", "log2 fold change": 0.637}
{"target": "PEX12 (peptide sequence: IVMGDTHK, peptide start residue: 92) (UniProt O00623)", "log2 fold change": -0.18}
{"target": "MRPS12 (peptide sequence: GVVLCTFTR, peptide start residue: 60) (UniProt O15235)", "log2 fold change": -0.0417}
{"target": "PDXK (peptide sequence: NPAGSVVMER, peptide start residue: 209) (UniProt O00764)", "log2 fold change": -0.314}
{"target": "DDX3X (peptide sequence: SFLLDLLNATGK, peptide start residue: 429) (UniProt O00571)", "log2 fold change": 0.423}
{"target": "ZNF609 (peptide sequence: NKPLSDMELNSSSEDSK, peptide start residue: 442) (UniProt O15014)", "log2 fold change": -0.353}
{"target": "EIF3D (peptide sequence: DMPYQPFSKGDRLGK, peptide start residue: 27) (UniProt O15371)", "log2 fold change": -0.23}
{"target": "UniProt B7Z6K7 (peptide sequence: QSIYIQR, peptide start residue: 68)", "log2 fold change": -0.00528}
{"target": "ITGB1BP1 (peptide sequence: SVDSSLGGLSR, peptide start residue: 25) (UniProt O14713)", "log2 fold change": -0.0561}
{"target": "UniProt O15117 (peptide sequence: FKYDGEIR, peptide start residue: 699)", "log2 fold change": -0.367}
{"target": "UniProt C9JQI7 (peptide sequence: EKEDAICK, peptide start residue: 608)", "log2 fold change": 0.0188}
{"target": "KRIT1 (peptide sequence: EASLFIVPSVVK, peptide start residue: 107) (UniProt O00522)", "log2 fold change": 0.292}
{"target": "ZNF785 (peptide sequence: RLPHSCPDCGR, peptide start residue: 169) (UniProt A8K8V0)", "log2 fold change": -0.315}
{"target": "UniProt C9JTQ0 (peptide sequence: AGLTALQLAAAR, peptide start residue: 153)", "log2 fold change": 0.364}
{"target": "UniProt O00507 (peptide sequence: FLFTTGFHTK, peptide start residue: 2051)", "log2 fold change": 0.355}
{"target": "TOR1A (peptide sequence: LYCLFAECCGQKR, peptide start residue: 42) (UniProt O14656)", "log2 fold change": 0.532}
{"target": "MEN1 (peptide sequence: KPPGTVAGTAR, peptide start residue: 522) (UniProt O00255)", "log2 fold change": 0.319}
{"target": "UniProt O14979 (peptide sequence: GFGFVLFKDAASVDKVLELK, peptide start residue: 190)", "log2 fold change": 0.309}
{"target": "LIN7A (peptide sequence: ATVAAFAASEGHSHPR, peptide start residue: 77) (UniProt O14910)", "log2 fold change": -0.19}
{"target": "ARPC2 (peptide sequence: DNTINLIHTFR, peptide start residue: 238) (UniProt O15144)", "log2 fold change": 0.424}
{"target": "SMCHD1 (peptide sequence: EKDQLSQSIVMYK, peptide start residue: 1629) (UniProt A6NHR9)", "log2 fold change": -0.175}
{"target": "COPE (peptide sequence: DSIVAELDREMSR, peptide start residue: 98) (UniProt O14579)", "log2 fold change": -0.101}
